Measured values taken from EP0363275A1, “Low molecular weight vectors specific for sugar receptors, their conjugates and processes for their preparation” (IRE-CELLTARG S.A., priority 1988, dated 1990).
The name of at least one read-out is uncertain.

Target: T1, récepteur à asialoglycoprotéine des hépatocytes (Rattus norvegicus, UniProt P02706+P08290)
T1 construct: le récepteur à galactoses présent à la membrane sinusoïdale des hépatocytes; endogenous in cells; host or cells: primary rat hepatocytes, isolated and cultured 16 h
T1 sequence (P02706 1-284): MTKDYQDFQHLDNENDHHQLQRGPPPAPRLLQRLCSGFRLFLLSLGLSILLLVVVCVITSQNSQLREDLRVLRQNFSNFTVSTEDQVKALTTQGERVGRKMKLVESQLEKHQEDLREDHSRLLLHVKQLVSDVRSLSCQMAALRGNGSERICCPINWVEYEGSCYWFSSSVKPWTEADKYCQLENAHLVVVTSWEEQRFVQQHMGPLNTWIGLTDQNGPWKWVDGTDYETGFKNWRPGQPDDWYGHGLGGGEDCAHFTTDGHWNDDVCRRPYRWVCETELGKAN
T1 sequence (P08290 1-301): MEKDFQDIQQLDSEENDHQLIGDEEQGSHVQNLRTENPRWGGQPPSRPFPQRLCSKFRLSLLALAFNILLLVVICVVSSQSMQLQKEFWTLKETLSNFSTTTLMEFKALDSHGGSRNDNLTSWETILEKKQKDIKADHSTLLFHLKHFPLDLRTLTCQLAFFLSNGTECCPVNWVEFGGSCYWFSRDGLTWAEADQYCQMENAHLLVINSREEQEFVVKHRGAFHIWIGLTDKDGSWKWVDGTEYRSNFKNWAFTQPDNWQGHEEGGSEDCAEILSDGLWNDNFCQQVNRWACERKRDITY
Test: Competition with ¹²⁵I HSA gal for binding to cultured hepatocytes at 4°C
Conditions: ratio to HSA gal
Procedure: D'autres caractéristiques et avantages de la présente invention apparaîtront à la lumière des exemples qui vont suivre. • - La figure 1 : Expériences de compétition entre l'HSA gal marqué à l'iode-125 et différentes concentrations molaires en HSA gal non radioactives (●) ou en composés glycosylés (mono O bi □ triantenne ▲ ) non radioactifs. Les cellules mises en culture depuis 16 h. sont incubées à 4°C pendant 4 h. en présence de 1 ml de milieu contenant 50 ng d'¹²⁵I HSA gal et les différentes concentrations en produits non radioactifs. Après l'incubation, les cellules sont lavées et la radioactivité qui leur est associée, mesurée. Les résultats sont exprimés en pourcentage d'¹²⁵I HSA gal qui reste associé aux cellules en fonction du logarithme de la concentration molaire en compétiteur. • - La figure 2 : Expériences de compétiton entre l'HSA gal marqué à l'iode-125 et différentes concentrations molaires en galactoses d'HSA gal ou de composés glycosylés (mono O bi □ et triantenne ▲ )non radioactifs. Les cellules sont traitées comme décrit dans la figure 1 et les résultats sont exprimés en pourcentage d'[…] HSA gal qui reste associé aux cellules en fonction du logarithme de la concentration molaire en galactose du compétiteur. • - La figure 3 : Distribution tissulaire de la triantenne marquée au tritium. […]

Substance: Cbz-Asp bis(-6-amino Hex-Tris tri Gal) [Biantenne]
- Ic 50 par rapport à celle de l'HSA gal: 600 fois
